Measurements taken from publication PMC1717016.
No constants are given. Whether binding was seen depends on the method and setting. Binding seen in cells or lysates may run through a third protein. Sequences can lack the tags named with a protein.

Target: T1, Tat-GFP fusion protein (HIV-1 transactivator of transcription fused to green fluorescent protein) (HIV-1), P04608
T1 chain: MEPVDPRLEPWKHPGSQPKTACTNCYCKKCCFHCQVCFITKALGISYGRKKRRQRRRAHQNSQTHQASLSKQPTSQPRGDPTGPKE
Assay: FRET or BRET; homo-FRET: two-photon polarization anisotropy (r) microscopy of GFP or YFP fusion proteins in single immobilised living cells; polarizing beam splitter and two-detector system
Details: remark: other sources report otherwise

B1: Tat-GFP fusion protein (HIV-1 transactivator of transcription fused to green fluorescent protein), P04608 1-86 (protein)
chain: T1 chain
binding: no binding
